Results are given in words; binding and its absence hold for the method and conditions named. Binding seen in cells or lysates may run through a third protein. Some entries that bind do so weakly or less than the wild type. For some of these results: Where a sequence is shown, tags or fusion partners need not be part of it. One block for each molecule: values may come before it.
Columns and labels:
[1] = target: Parkin (E3 ligase), endogenous in THLE2 cells (human (endogenous in THLE2)) (UniProt O60260); assay: co-IP; CoIP of Parkin and OXSM from THLE2 cells transfected with different concentrations of Flag-PCK2, Western blot
[2] = target: Parkin (E3 ligase), endogenous in THLE2 cells (human (endogenous in THLE2)) (UniProt O60260); assay: co-IP; endogenous proteins in lysates of MPHs or THLE2 cells (with/without H/R, with/without lactate); IP with anti-PCK2 or anti-Parkin antibody, Western blot; IP lysis buffer 20 mM Tris-HCl pH 7.5, 0.5% NP-40, 250 mM NaCl; protein A/G-Sepharose, 4 °C
[3] = target: T1, mitochondrial phosphoenolpyruvate carboxykinase 2 (PCK2), endogenous in THLE2 cells (human (endogenous in THLE2)) (UniProt Q16822); assay: as above
T1 sequence: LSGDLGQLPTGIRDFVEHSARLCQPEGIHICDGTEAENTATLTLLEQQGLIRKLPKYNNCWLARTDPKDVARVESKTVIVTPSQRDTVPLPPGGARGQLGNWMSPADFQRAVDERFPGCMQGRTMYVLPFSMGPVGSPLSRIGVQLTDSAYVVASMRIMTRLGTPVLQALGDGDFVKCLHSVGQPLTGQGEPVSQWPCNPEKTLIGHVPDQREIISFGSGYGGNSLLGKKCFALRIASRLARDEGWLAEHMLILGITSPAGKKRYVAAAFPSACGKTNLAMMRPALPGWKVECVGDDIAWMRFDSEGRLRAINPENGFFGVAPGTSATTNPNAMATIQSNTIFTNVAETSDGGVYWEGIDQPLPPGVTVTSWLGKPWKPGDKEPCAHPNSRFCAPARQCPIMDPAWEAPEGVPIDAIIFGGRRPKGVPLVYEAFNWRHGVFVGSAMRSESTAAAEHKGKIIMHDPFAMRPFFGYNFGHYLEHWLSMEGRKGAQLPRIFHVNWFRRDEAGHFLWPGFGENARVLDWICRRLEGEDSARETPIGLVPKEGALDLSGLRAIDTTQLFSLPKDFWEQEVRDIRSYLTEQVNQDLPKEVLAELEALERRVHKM

By UniProt entry, the sequences of proteins in these tests, tags left out. Residues count along the entry.
UniProt O60260: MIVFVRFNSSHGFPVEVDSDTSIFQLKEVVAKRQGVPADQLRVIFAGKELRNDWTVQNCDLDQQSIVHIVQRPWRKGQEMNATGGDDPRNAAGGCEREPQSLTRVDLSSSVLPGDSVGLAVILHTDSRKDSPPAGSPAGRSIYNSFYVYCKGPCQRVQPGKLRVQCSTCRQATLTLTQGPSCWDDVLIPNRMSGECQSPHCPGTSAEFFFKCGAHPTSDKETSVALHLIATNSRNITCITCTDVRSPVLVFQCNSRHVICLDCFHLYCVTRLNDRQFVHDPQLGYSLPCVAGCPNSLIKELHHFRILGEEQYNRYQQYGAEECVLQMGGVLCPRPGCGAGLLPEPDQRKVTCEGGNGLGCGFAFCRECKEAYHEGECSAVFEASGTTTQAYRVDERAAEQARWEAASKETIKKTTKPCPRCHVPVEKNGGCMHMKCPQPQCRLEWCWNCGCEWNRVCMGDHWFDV
UniProt Q9NWU1, residues 28-459: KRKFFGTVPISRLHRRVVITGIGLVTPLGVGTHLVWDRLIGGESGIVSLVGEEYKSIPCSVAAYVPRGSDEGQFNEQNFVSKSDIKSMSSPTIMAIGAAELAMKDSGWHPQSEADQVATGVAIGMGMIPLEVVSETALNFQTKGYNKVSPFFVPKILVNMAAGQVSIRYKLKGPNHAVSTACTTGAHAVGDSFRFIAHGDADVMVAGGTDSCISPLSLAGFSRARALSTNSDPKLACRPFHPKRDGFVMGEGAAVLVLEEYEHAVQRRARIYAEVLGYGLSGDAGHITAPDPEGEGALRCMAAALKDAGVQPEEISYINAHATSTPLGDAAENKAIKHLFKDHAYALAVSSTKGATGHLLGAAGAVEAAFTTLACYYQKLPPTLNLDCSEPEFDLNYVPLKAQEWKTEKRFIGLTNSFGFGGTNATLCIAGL

[4] = target: T2, Flag-PCK2 (human wild-type PCK2 in the GV141-Flag vector) (human) (UniProt Q16822); assay: co-IP; tagged proteins co-expressed in HEK293T cells; IP with anti-Flag or anti-MYC antibody, Western blot; IP lysis buffer 20 mM Tris-HCl pH 7.5, 0.5% NP-40, 250 mM NaCl
T2 sequence: T1 sequence

GST-fused PCK2 (human) = target: T3, GST-fused PCK2 (human) (UniProt Q16822); assay: pull-down; GST-PCK2 or GST on glutathione-Sepharose beads incubated with total lysates of cells expressing MYC-OXSM (THLE2, 2 hours, by the legend; HEK293T extracts, overnight at 4 °C, by the methods); 25 mM Tris-HCl pH 7.2, 150 mM NaCl; Western blot with anti-MYC or anti-GST; only the target purified
T3 sequence: T1 sequence

[5] = target: T4, mitochondrial phosphoenolpyruvate carboxykinase 2 (PCK2), endogenous in mouse primary hepatocytes (mouse (endogenous in MPHs)) (UniProt Q8BH04); assay: co-IP; endogenous proteins in lysates of MPHs or THLE2 cells (with/without H/R, with/without lactate); IP with anti-PCK2 or anti-Parkin antibody, Western blot; IP lysis buffer 20 mM Tris-HCl pH 7.5, 0.5% NP-40, 250 mM NaCl; protein A/G-Sepharose, 4 °C
T4 sequence: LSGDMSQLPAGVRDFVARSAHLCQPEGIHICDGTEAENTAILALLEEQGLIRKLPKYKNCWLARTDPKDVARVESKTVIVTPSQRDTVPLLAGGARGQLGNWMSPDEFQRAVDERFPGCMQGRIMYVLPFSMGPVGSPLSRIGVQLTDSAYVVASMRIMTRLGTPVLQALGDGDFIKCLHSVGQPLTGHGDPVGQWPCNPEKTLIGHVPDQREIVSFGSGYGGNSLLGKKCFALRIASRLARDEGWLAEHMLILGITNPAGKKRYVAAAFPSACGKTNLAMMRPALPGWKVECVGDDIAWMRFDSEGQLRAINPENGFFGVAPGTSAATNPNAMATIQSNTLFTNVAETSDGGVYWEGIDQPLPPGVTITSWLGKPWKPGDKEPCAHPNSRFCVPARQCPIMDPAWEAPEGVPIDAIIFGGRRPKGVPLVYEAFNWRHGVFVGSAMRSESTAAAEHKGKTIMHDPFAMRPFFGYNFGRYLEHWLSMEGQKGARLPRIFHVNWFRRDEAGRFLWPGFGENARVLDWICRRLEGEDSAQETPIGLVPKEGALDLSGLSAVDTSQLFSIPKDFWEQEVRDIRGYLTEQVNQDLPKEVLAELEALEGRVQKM

[6] = target: 3-oxoacyl-ACP synthase (OXSM), endogenous in THLE2 cells (human (endogenous in THLE2)) (UniProt Q9NWU1); assay: co-IP; CoIP of Parkin and OXSM from THLE2 cells transfected with different concentrations of Flag-PCK2, Western blot

- binding [1]: binds
- binding [2]: binds
- binding [3]: binds
Molecule: 3-oxoacyl-ACP synthase (OXSM), endogenous in THLE2 cells (from UniProt Q9NWU1 28-459) (enzyme)

- binding [4]: binds
- binding (GST-fused PCK2 (human)): binds
Molecule: MYC-OXSM (human wild-type OXSM in the GV141-Myc vector) (from UniProt Q9NWU1 28-459) (enzyme)

- binding [5]: binds
B1: lysine acetyltransferase 8 (KAT8), endogenous in mouse primary hepatocytes (enzyme, UniProt Q9D1P2 1-458)
chain: MAAQGATAAVAATTSGTVGEGEPGPGENAAVEGPARSPGRVSPPTPARGEPEVTVEIGETYLCRRPDSTWHSAEVIQSRVNDQEGREEFYVHYVGFNRRLDEWVDKNRLALTKTVKDAVQKNSEKYLSELAEQPERKITRNQKRKHDEINHVQKTYAEMDPTTAALEKEHEAITKVKYVDKIHIGNYEIDAWYFSPFPEDYGKQPKLWLCEYCLKYMKFEKSYRFHLGQCQWRQPPGKEIYRKSNISVYEVDGKDHKIYCQNLCLLAKLFLDHKTLYFDVEPFVFYILTEVDRQGAHIVGYFSKEKESPDGNNVACILTLPPYQRRGYGKFLIAFSYELSKLESTVGSPEKPLSDLGKLSYRSYWSWVLLEILRDFRGTLSIKDLSQMTSITQNDIISTLQSLNMVKYWKGQHVICVTPKLVEEHLKSAQYKKPPITVDSVCLKWAPPKHKQVKLSKK

- binding [6]: binds
B2: Flag-PCK2 (human wild-type PCK2 in the GV141-Flag vector) (enzyme, UniProt Q16822 33-640)
chain: T1 sequence
